{"source": "PubChem BioAssay AID1508587 (Peter MacCallum Cancer Centre, 2020)", "purpose": "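Knockdowns that add to vemurafenib's cut in melanoma glycolysis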 (follow-up of hits)", "cell system": "human WM266.4 melanoma cells with a BRAF V600 mutation", "reagents": "single siRNA against human genes, 25 nM", "duration": "96 h", "treatment": "vemurafenib 300 nM (about IC25), given 48 h after transfection for 48 h", "measurement": "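Per-cell lactate from absorbance divided by DAPI nucleus counts, compared with and without vemurafenib, relative to non-targeting siRNA, mean of 2 replicates; nuclear counts also give cell number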", "scale": "lactate per cell, drug vs no drug: higher = less drug-induced drop in lactate per cell", "active means": "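Enhancer call for any duplex whose drug versus no-drug per-cell lactate ratio is below 0.55 (2 SD beneath non-targeting average); genes confirmed when at least 2 of their 4 duplexes qualify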", "note": "Here is an unselected part of about 1,600 deposited reagents. 623 of all reagents (39%) count as active. 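Calls are for each duplex; lactate ratios contain extreme outliers.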 Unmarked entries are inactive. Not all columns of the deposit are shown."}
{"Gene": "KRTAP10-10 (GeneID 353333)", "PubChem SID": "SID134280418", "lactate per cell, drug vs no drug": "0.5 (active)"}
{"Gene": "KRTAP10-10 (GeneID 353333)", "PubChem SID": "SID134280419", "lactate per cell, drug vs no drug": 0.58}
{"Gene": "KRTAP10-10 (GeneID 353333)", "PubChem SID": "SID134280420", "lactate per cell, drug vs no drug": 0.64}
{"Gene": "KRTAP10-10 (GeneID 353333)", "PubChem SID": "SID135615666", "lactate per cell, drug vs no drug": 0.9}
{"Gene": "PFDN6 (GeneID 10471)", "PubChem SID": "SID134286925", "lactate per cell, drug vs no drug": 0.94}
{"Gene": "PFDN6 (GeneID 10471)", "PubChem SID": "SID134286927", "lactate per cell, drug vs no drug": 0.7}
{"Gene": "PFDN6 (GeneID 10471)", "PubChem SID": "SID134286928", "lactate per cell, drug vs no drug": "0.17 (active)"}
{"Gene": "PFDN6 (GeneID 10471)", "PubChem SID": "SID135616314", "lactate per cell, drug vs no drug": 0.92}
{"Gene": "EDN3 (GeneID 1908)", "PubChem SID": "SID134251277", "lactate per cell, drug vs no drug": "0.38 (active)"}
{"Gene": "EDN3 (GeneID 1908)", "PubChem SID": "SID134251278", "lactate per cell, drug vs no drug": 1.02}
{"Gene": "EDN3 (GeneID 1908)", "PubChem SID": "SID134251279", "lactate per cell, drug vs no drug": "0.48 (active)"}
{"Gene": "EDN3 (GeneID 1908)", "PubChem SID": "SID134251280", "lactate per cell, drug vs no drug": 0.69}
{"Gene": "H2AC17 (GeneID 8336)", "PubChem SID": "SID134252817", "lactate per cell, drug vs no drug": "0.53 (active)"}
{"Gene": "H2AC17 (GeneID 8336)", "PubChem SID": "SID134252818", "lactate per cell, drug vs no drug": 0.55}
{"Gene": "H2AC17 (GeneID 8336)", "PubChem SID": "SID134252819", "lactate per cell, drug vs no drug": "0.42 (active)"}
{"Gene": "H2AC17 (GeneID 8336)", "PubChem SID": "SID135613476", "lactate per cell, drug vs no drug": 0.74}
{"Gene": "ANAPC1 (GeneID 64682)", "PubChem SID": "SID134261909", "lactate per cell, drug vs no drug": "0.5 (active)"}
{"Gene": "ANAPC1 (GeneID 64682)", "PubChem SID": "SID135614235", "lactate per cell, drug vs no drug": 0.62}
{"Gene": "ANAPC1 (GeneID 64682)", "PubChem SID": "SID135614236", "lactate per cell, drug vs no drug": "0.38 (active)"}
{"Gene": "ANAPC1 (GeneID 64682)", "PubChem SID": "SID135614237", "lactate per cell, drug vs no drug": 0.58}
{"Gene": "MLEC (GeneID 9761)", "PubChem SID": "SID134285865", "lactate per cell, drug vs no drug": 0.64}
{"Gene": "MLEC (GeneID 9761)", "PubChem SID": "SID134285866", "lactate per cell, drug vs no drug": 0.7}
{"Gene": "MLEC (GeneID 9761)", "PubChem SID": "SID134285867", "lactate per cell, drug vs no drug": 0.64}
{"Gene": "MLEC (GeneID 9761)", "PubChem SID": "SID134285868", "lactate per cell, drug vs no drug": 0.77}
{"Gene": "MIER3 (GeneID 166968)", "PubChem SID": "SID134268325", "lactate per cell, drug vs no drug": 0.8}
{"Gene": "MIER3 (GeneID 166968)", "PubChem SID": "SID134268326", "lactate per cell, drug vs no drug": "0.52 (active)"}
{"Gene": "MIER3 (GeneID 166968)", "PubChem SID": "SID134268327", "lactate per cell, drug vs no drug": "0.2 (active)"}
{"Gene": "MIER3 (GeneID 166968)", "PubChem SID": "SID134268328", "lactate per cell, drug vs no drug": 0.62}
{"Gene": "IGF2BP1 (GeneID 10642)", "PubChem SID": "SID134230521", "lactate per cell, drug vs no drug": 0.56}
{"Gene": "IGF2BP1 (GeneID 10642)", "PubChem SID": "SID134230522", "lactate per cell, drug vs no drug": 0.61}
{"Gene": "IGF2BP1 (GeneID 10642)", "PubChem SID": "SID134230523", "lactate per cell, drug vs no drug": "0.46 (active)"}
{"Gene": "IGF2BP1 (GeneID 10642)", "PubChem SID": "SID134230524", "lactate per cell, drug vs no drug": "0.54 (active)"}
{"Gene": "HPSE2 (GeneID 60495)", "PubChem SID": "SID134229801", "lactate per cell, drug vs no drug": "0.33 (active)"}
{"Gene": "HPSE2 (GeneID 60495)", "PubChem SID": "SID134229802", "lactate per cell, drug vs no drug": "0.48 (active)"}
{"Gene": "HPSE2 (GeneID 60495)", "PubChem SID": "SID134229803", "lactate per cell, drug vs no drug": "0.46 (active)"}
{"Gene": "HPSE2 (GeneID 60495)", "PubChem SID": "SID134229804", "lactate per cell, drug vs no drug": 0.67}

Laid out differently: entries from further up.
Gene	PubChem SID	lactate per cell, drug vs no drug
PFDN6 (GeneID 10471)	SID134286927	0.7
PFDN6 (GeneID 10471)	SID134286928	0.17 (active)
PFDN6 (GeneID 10471)	SID135616314	0.92
EDN3 (GeneID 1908)	SID134251277	0.38 (active)
EDN3 (GeneID 1908)	SID134251278	1.02
